# The list does not hold the whole screen: it gathers tests that were run many times, whatever their T/C, doses with no T/C, and many T/C values between a quarter and a half above the control. Further doses and runs are listed elsewhere. T/C is the treated group as % of the vehicle group. Some doses have a count of surviving animals in place of a T/C: the source holds a T/C of zero for them, seemingly a mark for toxic or unscored doses. Some doses without a T/C left all or most animals alive at the check, yet need not have been tolerated: the source hardly ever lists a survival T/C far under the control, and the zero likely stands for such cases as well. Counts of survivors are from the toxicity check (mostly the fifth day) where no day follows; animals may have died later. Schedule codes are those of the source, taken here to give the interval after Q, in days (D) or hours (H), and the number of doses after X. Some schedules carry Z or #; the key to these is not given. Some structures stand for samples that the source files as different forms (salt, stereo form or complex); doses refer to the form tested. Where survival is the endpoint, the PubChem record calls one and a half times the control and up active, and a quarter to a half above the control has no call in these data; cut-offs in other NCI protocols can differ.
# Test system: L1210 leukemia ip in BDF1 mice, survival T/C
# Assay: NCI In Vivo Anticancer Drug Screen. Data for tumor model L1210 Leukemia (intraperitoneal) in B6D2F1 (BDF1) mice
# Settings: T/C endpoint: mean survival time, higher T/C = longer survival
# [1] = dose: 200.0 mg/kg/injection, schedule: Q01DX001 (ip), vehicle: saline
# [2] = dose: 400.0 mg/kg/injection, schedule: Q01DX001 (ip), vehicle: saline
smiles,measurement,setting,value
O=C(Nc1ccc(C2=NCCN2)cc1)Nc1cccc(C(=O)Nc2ccc(C3=NCCN3)cc2)c1,T/C,"dose: 15.0 mg/kg/injection, schedule: Q01DX Z (ip), vehicle: carboxymethylcellulose (CMC)",134 % of control
same,T/C,"dose: 60.0 mg/kg/injection, schedule: Q01DX Z (ip), vehicle: carboxymethylcellulose (CMC)",131 % of control
same,T/C,"dose: 250.0 mg/kg/injection, schedule: Q01DX Z (ip), vehicle: carboxymethylcellulose (CMC)",148 % of control
same,T/C,"dose: 480.0 mg/kg/injection, schedule: Q01DX Z (ip), vehicle: saline",136 % of control
same,survivor count,"dose: 500.0 mg/kg/injection, schedule: Q01DX Z (ip), vehicle: carboxymethylcellulose (CMC)",0 of 6
Nc1nc(N)nc(-c2ccc(NC(=O)c3ccccc3[N+](=O)[O-])cc2)n1,survivor count,"dose: 400.0 mg/kg/injection, schedule: Q01DX001 (ip), vehicle: Klucel (hydroxypropylcellulose) (HPC)",6 of 6
O=[N+]([O-])c1ccccc1CN1CCCCC1,survivor count,"dose: 40.0 mg/kg/injection, schedule: Q01DX001 (ip), vehicle: saline",1 of 4
same,survivor count,"dose: 50.0 mg/kg/injection, schedule: Q01DX001 (ip), vehicle: saline",1 of 4
same,survivor count,"dose: 80.0 mg/kg/injection, schedule: Q01DX001 (ip), vehicle: saline",0 of 4
same,survivor count,"dose: 100.0 mg/kg/injection, schedule: Q01DX001 (ip), vehicle: saline",0 of 4
same,survivor count,[1],0 of 4
same,survivor count,[2],0 of 4
O=C(O)CCC(=O)NCCNC(c1ccccc1)(c1ccccc1)c1ccccc1,survivor count,"dose: 100.0 mg/kg/injection, schedule: Q01DX009 (ip), vehicle: saline",3 of 6
same,survivor count,"dose: 200.0 mg/kg/injection, schedule: Q01DX009 (ip), vehicle: saline",3 of 6
same,survivor count,"dose: 400.0 mg/kg/injection, schedule: Q01DX009 (ip), vehicle: saline",0 of 6
Cc1cc(N)c(S)cc1C,survivor count,"dose: 100.0 mg/kg/injection, schedule: Q04DX002 (ip), vehicle: saline with Tween-80",3 of 3
same,survivor count,[1],3 of 6
same,survivor count,"dose: 200.0 mg/kg/injection, schedule: Q04DX002 (ip), vehicle: saline with Tween-80",0 of 3
same,survivor count,[2],1 of 6
same,survivor count,"dose: 400.0 mg/kg/injection, schedule: Q04DX002 (ip), vehicle: saline with Tween-80",0 of 3
C#CCN1C(=O)C(c2ccccc2)C2(CCN(C)CC2)C1=O (stereo not given),survivor count,"dose: 400.0 mg/kg/injection, schedule: Q01DX001 (ip), vehicle: saline with Tween-80",0 of 6
C[n+]1ccc(NC(=O)c2ccc(NC(=O)c3cccc(C(=O)Nc4ccc(C(=O)Nc5cc[n+](C)cc5)cc4)c3)cc2)cc1,T/C,"dose: 10.0 mg/kg/injection, schedule: Q01DX Z (ip), vehicle: carboxymethylcellulose (CMC)",144 % of control
same,survivor count,"dose: 320.0 mg/kg/injection, schedule: Q01DX Z (ip), vehicle: carboxymethylcellulose (CMC)",5 of 6
C=CC[Se]CC=C,survivor count,"dose: 400.0 mg/kg/injection, schedule: Q04DX003 (ip), vehicle: Klucel (hydroxypropylcellulose) (HPC)",1 of 6
[Cl][Ni][Cl].[NH-]CCN1CC1.[NH-]CCN1CC1,survivor count,"dose: 100.0 mg/kg/injection, schedule: Q04DX003 (ip), vehicle: saline",1 of 6
same,survivor count,"dose: 200.0 mg/kg/injection, schedule: Q04DX003 (ip), vehicle: saline",0 of 6
same,survivor count,"dose: 400.0 mg/kg/injection, schedule: Q04DX003 (ip), vehicle: saline",0 of 6
CC(C)C(C#N)c1ccccc1 (stereo not given),survivor count,"dose: 100.0 mg/kg/injection, schedule: Q04DX003 (ip), vehicle: Klucel (hydroxypropylcellulose) (HPC)",0 of 6
C1=CC2CC1CC2/C=N\N=C\C1CC2C=CC1C2 (stereo not given),survivor count,"dose: 400.0 mg/kg/injection, schedule: Q04DX002 (ip), vehicle: Klucel (hydroxypropylcellulose) (HPC)",1 of 3
Nc1ccn(C2OC(CO)C(OP(=O)(O)O)C2O)c(=O)n1 (stereo not given),survivor count,"dose: 160.0 mg/kg/injection, schedule: Q01DX001 (ip), vehicle: water",6 of 10
same,survivor count,"dose: 320.0 mg/kg/injection, schedule: Q01DX001 (ip), vehicle: water",2 of 10
Cc1cc(N(CCOS(C)(=O)=O)CCOS(C)(=O)=O)ccc1C=Nc1ccc(C(=O)O)c(O)c1,T/C,"dose: 9.0 mg/kg/injection, schedule: Q01DX009 (ip), vehicle: saline with Tween-80",125 % of control
same,survivor count,"dose: 100.0 mg/kg/injection, schedule: Q01DX009 (ip), vehicle: saline with Tween-80",2 of 6
same,survivor count,"dose: 200.0 mg/kg/injection, schedule: Q01DX009 (ip), vehicle: saline with Tween-80",2 of 6
same,survivor count,"dose: 400.0 mg/kg/injection, schedule: Q01DX009 (ip), vehicle: saline with Tween-80",0 of 6

# Source: PubChem BioAssay AID248 (DTP/NCI, 2004)
